# Assay results taken from PMC6343231.
# Sequences of proteins named here, by UniProt entry; tags and fusion partners are left off.
# UniProt P23443: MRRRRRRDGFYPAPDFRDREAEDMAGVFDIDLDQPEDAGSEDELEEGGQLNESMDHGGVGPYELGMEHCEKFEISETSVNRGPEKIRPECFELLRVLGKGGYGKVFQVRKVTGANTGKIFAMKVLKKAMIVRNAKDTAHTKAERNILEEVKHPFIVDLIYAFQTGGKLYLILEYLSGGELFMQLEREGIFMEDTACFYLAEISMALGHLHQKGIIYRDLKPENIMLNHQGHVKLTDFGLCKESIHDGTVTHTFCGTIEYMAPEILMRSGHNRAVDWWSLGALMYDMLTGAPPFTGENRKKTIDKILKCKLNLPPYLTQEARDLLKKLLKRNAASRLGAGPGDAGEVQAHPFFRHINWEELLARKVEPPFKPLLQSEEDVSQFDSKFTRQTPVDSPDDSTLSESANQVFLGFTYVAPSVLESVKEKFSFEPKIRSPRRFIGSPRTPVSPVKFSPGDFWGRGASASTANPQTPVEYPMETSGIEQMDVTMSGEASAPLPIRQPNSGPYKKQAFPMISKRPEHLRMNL
# Results are given in words; binding and its absence hold for the method and conditions named. In cells and extracts the contact can be indirect. Some entries that bind do so weakly or less than the wild type.
# B1: T-box brain protein 2 (TBR2) (protein, UniProt O95936-4 1-705)
# chain: MQLGEQLLVSSVNLPGAHFYPLESARGGSGGSAGHLPSAAPSPQKLDLDKASKKFSGSLSCEAVSGEPAAASAGAPAAMLSDTDAGDAFASAAAVAKPGPPDGRKGSPCGEEELPSAAAAAAAAAAAAAATARYSMDSLSSERYYLQSPGPQGSELAAPCSLFPYQAAAGAPHGPVYPAPNGARYPYGSMLPPGGFPAAVCPPGRAQFGPGAGAGSGAGGSSGGGGGPGTYQYSQGAPLYGPYPGAAAAGSCGGLGGLGVPGSGFRAHVYLCNRPLWLKFHRHQTEMIITKQGRRMFPFLSFNINGLNPTAHYNVFVEVVLADPNHWRFQGGKWVTCGKADNNMQGNKMYVHPESPNTGSHWMRQEISFGKLKLTNNKGANNNNTQMIVLQSLHKYQPRLHIVEVTEDGVEDLNEPSKTQTFTFSETQFIAVTAYQNTDITQLKIDHNPFAKGFRDNYDSMYTASENDRLTPSPTDSPRSHQIVPGGRYGVQSFFPEPFVNTLPQARYYNGERTVPQTNGLLSPQQSEEVANPPQRWLVTPVQQPGTNKLDISSYESEYTSSTLLPYGIKSLPLQTSHALGYYPDPTFPAMAGWGGRGSYQRKMAAGLPWTSRTSPTVFSEDQLSKEKVKEEIGSSWIETPPSIKSLDSNDSGVYTSACKRRRLSPSNSSNENSPSIKCEDINAEEYSKDTSKGMGGYYAFYTTP
# Target: Ribosomal protein S6 kinase 1 (S6K1) (human (endogenous in MCF-7)) (UniProt P23443)
# Experiment: co-IP; endogenous S6K1 precipitated from 1000 µg MCF-7 total cell lysate with anti-S6K1 mouse monoclonal antibodies on protein A/G PLUS agarose beads, overnight at 4°C; lysis buffer 20 mM Tris-HCl pH 7.5, 150 mM NaCl, 1% Triton X-100, 5 mM EDTA; three washes; blot with anti-TBR2
binder,measurement,value
B1,binding,binds
